Data as given in the supplement of paper PMC4604168 (melanoma cell lines).
The list shows a part of the results. Repeats are few or missing, and single values can be far off.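 Cells were imaged in 1,536-well plates, and nuclei stained with an antibody against cleaved PARP were counted against all DNA-stained nuclei to give the apoptosis fraction. Screening doses were chosen to leave most cells alive, and resting and induced cleaved-PARP levels differ strongly between cell lines.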

What was measured:
Experiment in all cases: cleaved PARP positive nuclei fraction relative to DMSO control; melanoma cells; higher = more apoptosis
Details in all cases: library dose: low library concentration; 72 h
501Mel = tested on: 501Mel
A101D = tested on: A101D
A2058 = tested on: A2058
A375 = tested on: A375
C32 = tested on: C32
CBRC008 = tested on: CBRC008 (line from a melanoma biopsy)
CBRC014 = tested on: CBRC014 (line from a melanoma biopsy)
CBRC016 = tested on: CBRC016 (line from a melanoma biopsy)
CBRC017 = tested on: CBRC017 (line from a melanoma biopsy)
CBRC013 = tested on: CBRC013 (line from a melanoma biopsy)

Structure (SMILES) | cleaved PARP positive nuclei fraction (501Mel) [%] | cleaved PARP positive nuclei fraction (A101D) [%] | cleaved PARP positive nuclei fraction (A2058) [%] | cleaved PARP positive nuclei fraction (A375) [%] | cleaved PARP positive nuclei fraction (C32) [%] | cleaved PARP positive nuclei fraction (CBRC008) [%] | cleaved PARP positive nuclei fraction (CBRC014) [%] | cleaved PARP positive nuclei fraction (CBRC016) [%] | cleaved PARP positive nuclei fraction (CBRC017) [%] | cleaved PARP positive nuclei fraction (CBRC013) [%]
C[C@]12O[C@H](C[C@]1(O)CO)n1c3ccccc3c3c4c(c5c6ccccc6n2c5c31)CNC4=O [Lestaurtinib] + CN1CCN(c2ccc3nc(-c4c(N)c5c(F)cccc5[nH]c4=O)[nH]c3c2)CC1 [Dovitinib] (first compound 0.004 µM, partner dose 0.1 µM) | 145 | 125 | 185 | 131 | 92.8 | 21.8 | 81.4 | 83 | 67.2 | –
O=C(Nc1cc(C(F)(F)F)cc(C(F)(F)F)c1)c1cc(Cl)ccc1O + N.N.[Cl][Pt][Cl] [cisplatin] (first compound 0.016 µM, partner dose 1.6 µM) | 73.6 | 166 | 302 | 43.6 | 81.2 | 169 | 128 | 286 | 117 | –
C[C@]12O[C@H](C[C@]1(O)CO)n1c3ccccc3c3c4c(c5c6ccccc6n2c5c31)CNC4=O [Lestaurtinib] + CCCCCCCCc1ccc(CCC(N)(CO)CO)cc1 [fingolimod] (first compound 0.004 µM, partner dose 2 µM) | 153 | 95.2 | 34.6 | 221 | 68.1 | 71.4 | 71.1 | 94.3 | 108 | –
O=c1[nH]nc(Sc2ncc([N+](=O)[O-])s2)n1-c1ccc2c(c1)OCCO2 + Cn1cc(C2=C(c3cn(C4CCN(Cc5ccccn5)CC4)c4ccccc34)C(=O)NC2=O)c2ccccc21 [Enzastaurin] (first compound 0.2 µM, partner dose 0.8 µM) | 67.3 | 86.1 | 92 | 80.9 | 72.5 | 87.1 | 99.1 | 89.5 | 106 | –
C[C@]12O[C@H](C[C@]1(O)CO)n1c3ccccc3c3c4c(c5c6ccccc6n2c5c31)CNC4=O [Lestaurtinib] + OCc1c[nH]c2ccccc12 [Indole-3-carbinol] (first compound 0.004 µM, partner dose 0.8 µM) | 129 | 88 | 195 | 79.6 | 74.5 | 31.4 | 86.8 | 128 | 88.6 | –
Cc1ccc(Nc2nccc(N(C)c3ccc4c(C)n(C)nc4c3)n2)cc1S(N)(=O)=O [Pazopanib] + C[As](C)SC[C@H](NC(=O)CC[C@H](N)C(=O)O)C(=O)NCC(=O)O [Darinaparsin] (first compound 0.4 µM, partner dose 0.4 µM) | 63 | 126 | 136 | 47.8 | 69.3 | 86.8 | 117 | 79.3 | 123 | –
CN(c1ncccc1CNc1nc(Nc2ccc3c(c2)CC(=O)N3)ncc1C(F)(F)F)S(C)(=O)=O + C[As](C)SC[C@H](NC(=O)CC[C@H](N)C(=O)O)C(=O)NCC(=O)O [Darinaparsin] (first compound 0.08 µM, partner dose 0.4 µM) | 469 | 41.6 | 97 | 68.8 | 187 | 113 | 101 | 72.7 | 96.3 | –
Cc1cc(Nc2cc(N3CCN(C)CC3)nc(/C=C/c3ccccc3)n2)n[nH]1 + C[As](C)SC[C@H](NC(=O)CC[C@H](N)C(=O)O)C(=O)NCC(=O)O [Darinaparsin] (first compound 0.04 µM, partner dose 0.4 µM) | 262 | 258 | 118 | 172 | 79.9 | 121 | 121 | 91 | 90.4 | –
CC1(C)CCC(c2ccc(Cl)cc2)=C(CN2CCN(c3ccc(C(=O)NS(=O)(=O)c4ccc(N[C@H](CCN5CCOCC5)CSc5ccccc5)c(S(=O)(=O)C(F)(F)F)c4)cc3)CC2)C1 + C[As](C)SC[C@H](NC(=O)CC[C@H](N)C(=O)O)C(=O)NCC(=O)O [Darinaparsin] (first compound 0.4 µM, partner dose 0.4 µM) | 118 | 135 | 150 | 397 | 177 | 942 | 516 | 2670 | 249 | –
Cn1cc(C2=C(c3cn(C4CCN(Cc5ccccn5)CC4)c4ccccc34)C(=O)NC2=O)c2ccccc21 [Enzastaurin] + C[C@]1(O)C[C@@H](c2nc(-c3ccc4ccc(-c5ccccc5)nc4c3)c3c(N)nccn32)C1 [OSI906] (first compound 0.8 µM, partner dose 0.4 µM) | 83.2 | 272 | 82.5 | 67.7 | 165 | 48.8 | 82.1 | 107 | 100 | –
C[C@]12O[C@H](C[C@]1(O)CO)n1c3ccccc3c3c4c(c5c6ccccc6n2c5c31)CNC4=O [Lestaurtinib] + C[C@]1(O)C[C@@H](c2nc(-c3ccc4ccc(-c5ccccc5)nc4c3)c3c(N)nccn32)C1 [OSI906] (first compound 0.004 µM, partner dose 0.4 µM) | 102 | 213 | 132 | 488 | 173 | 133 | 124 | 39.6 | 135 | –
COc1cc([C@@H]2c3cc4c(cc3[C@@H](O[C@@H]3O[C@@H]5CO[C@@H](C)O[C@H]5[C@H](O)[C@H]3O)[C@H]3COC(=O)[C@H]23)OCO4)cc(OC)c1O [etoposide] + C[As](C)SC[C@H](NC(=O)CC[C@H](N)C(=O)O)C(=O)NCC(=O)O [Darinaparsin] (first compound 0.02 µM, partner dose 0.4 µM) | 85.4 | 162 | 179 | 37.2 | 68.3 | 88.4 | – | 70.2 | 108 | –
Clc1ccc(Nc2nnc(Cc3ccncc3)c3ccccc23)cc1 [vatalanib] + C[As](C)SC[C@H](NC(=O)CC[C@H](N)C(=O)O)C(=O)NCC(=O)O [Darinaparsin] (first compound 2 µM, partner dose 0.4 µM) | 53 | 54.7 | 120 | 141 | 147 | 105 | 134 | 62 | 107 | –
CCCCCCCCCCCCCCCCCCOP(=O)([O-])OC1CC[N+](C)(C)CC1 [Perifosine] + Cn1cc(C2=C(c3cn(C4CCN(Cc5ccccn5)CC4)c4ccccc34)C(=O)NC2=O)c2ccccc21 [Enzastaurin] (first compound 0.4 µM, partner dose 0.8 µM) | 187 | 46 | 25.1 | 54.7 | 67.7 | 61.4 | 106 | 93.2 | 76.3 | –
C[As](C)SC[C@H](NC(=O)CC[C@H](N)C(=O)O)C(=O)NCC(=O)O [Darinaparsin] + COc1ccc(COc2ccc(Cc3cnc(N)nc3N)cc2OC)cc1 [GW2580] (first compound 0.4 µM, partner dose 1 µM) | 47.7 | 47.3 | 137 | 74.7 | 143 | – | 90.5 | 171 | 82.2 | 240
N.N.[Cl][Pt][Cl] [cisplatin] + C[C@]1(c2nc3c(C(N)=O)cccc3[nH]2)CCCN1 [Veliparib] (first compound 1.6 µM, partner dose 1.4 µM) | 99 | 136 | 162 | 202 | 82.6 | 174 | 117 | 135 | 101 | –
Cc1cc(Nc2cc(N3CCN(C)CC3)nc(Sc3ccc(NC(=O)C4CC4)cc3)n2)n[nH]1 [Tozasertib] + C[C@]12O[C@H](C[C@]1(O)CO)n1c3ccccc3c3c4c(c5c6ccccc6n2c5c31)CNC4=O [Lestaurtinib] (first compound 0.006 µM, partner dose 0.004 µM) | 83.3 | 45.4 | 96 | 63.3 | 33.6 | 54 | 92.4 | 101 | 81 | –
Cn1cc(C2=C(c3cn(C4CCN(Cc5ccccn5)CC4)c4ccccc34)C(=O)NC2=O)c2ccccc21 [Enzastaurin] + CS(=O)(=O)c1ccc(C(=O)Nc2ccc(Cl)c(-c3ccccn3)c2)c(Cl)c1 [vismodegib] (first compound 0.8 µM, partner dose 1 µM) | 76.1 | 214 | 88.7 | 39.7 | 72.6 | 180 | 103 | 68.2 | 101 | –
CC1(C)CCC(c2ccc(Cl)cc2)=C(CN2CCN(c3ccc(C(=O)NS(=O)(=O)c4ccc(N[C@H](CCN5CCOCC5)CSc5ccccc5)c(S(=O)(=O)C(F)(F)F)c4)cc3)CC2)C1 + Cn1cc(C2=C(c3cn(C4CCN(Cc5ccccn5)CC4)c4ccccc34)C(=O)NC2=O)c2ccccc21 [Enzastaurin] (first compound 0.4 µM, partner dose 0.8 µM) | 54.6 | 161 | 207 | 380 | 149 | 531 | 556 | 813 | 307 | –
NC1(c2ccc(-c3nc4ccn5c(=O)[nH]nc5c4cc3-c3ccccc3)cc2)CCC1 + N.N.[Cl][Pt][Cl] [cisplatin] (first compound 0.4 µM, partner dose 1.6 µM) | 151 | 51.3 | 70 | 149 | 85.8 | 196 | 85.5 | 33.9 | 130 | –
N#CC[C@H](C1CCCC1)n1cc(-c2ncnc3[nH]ccc23)cn1 [ruxolitinib] + Cn1cc(C2=C(c3cn(C4CCN(Cc5ccccn5)CC4)c4ccccc34)C(=O)NC2=O)c2ccccc21 [Enzastaurin] (first compound 1 µM, partner dose 0.8 µM) | 106 | 15.5 | 112 | 165 | 68.2 | 146 | 104 | 104 | 82.7 | –
CCCCCCCCCCCCCCCCCCOP(=O)([O-])OC1CC[N+](C)(C)CC1 [Perifosine] + C[C@]12O[C@H](C[C@]1(O)CO)n1c3ccccc3c3c4c(c5c6ccccc6n2c5c31)CNC4=O [Lestaurtinib] (first compound 0.4 µM, partner dose 0.004 µM) | 114 | 157 | 46.9 | 112 | 40.2 | 127 | 166 | 59.9 | 88.7 | –

As a working copy, part of the list above.
Structure (SMILES) | cleaved PARP positive nuclei fraction (501Mel) [%] | cleaved PARP positive nuclei fraction (A101D) [%] | cleaved PARP positive nuclei fraction (A2058) [%] | cleaved PARP positive nuclei fraction (A375) [%] | cleaved PARP positive nuclei fraction (C32) [%] | cleaved PARP positive nuclei fraction (CBRC008) [%] | cleaved PARP positive nuclei fraction (CBRC014) [%] | cleaved PARP positive nuclei fraction (CBRC016) [%] | cleaved PARP positive nuclei fraction (CBRC017) [%] | cleaved PARP positive nuclei fraction (CBRC013) [%]
NC1(c2ccc(-c3nc4ccn5c(=O)[nH]nc5c4cc3-c3ccccc3)cc2)CCC1 + N.N.[Cl][Pt][Cl] [cisplatin] (first compound 0.4 µM, partner dose 1.6 µM) | 151 | 51.3 | 70 | 149 | 85.8 | 196 | 85.5 | 33.9 | 130 | –
N#CC[C@H](C1CCCC1)n1cc(-c2ncnc3[nH]ccc23)cn1 [ruxolitinib] + Cn1cc(C2=C(c3cn(C4CCN(Cc5ccccn5)CC4)c4ccccc34)C(=O)NC2=O)c2ccccc21 [Enzastaurin] (first compound 1 µM, partner dose 0.8 µM) | 106 | 15.5 | 112 | 165 | 68.2 | 146 | 104 | 104 | 82.7 | –
